{"source": "PubChem BioAssay AID743395", "about": "(Broad Institute, 2014)", "note": "Screen size: about 1,200 compounds; about 480 (40%) were called active. How the calls were made is not given here. So high a share suggests a set chosen from earlier hits. The list shows a part of the results, in another mix than the full data. Measured potencies and affinities stand elsewhere.", "data": [{"assay": "HepG2 cell cytotoxicity, dose response, cytotoxicity control, CellTiter-Glo luminescence, cherry-pick, set 2 (AID 743395);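 further: 0% = neutral control wells and -100% = positive control wells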", "details": "HepG2 viability, CellTiter-Glo ATP luminescence, 72 h; at 26 µM (top of the series)", "values": [{"smiles": "CCOC(=O)C1CCCN(c2ccc([N+](=O)[O-])c3nonc23)C1", "note": "(configuration not stated)", "activity change, negative = cytotoxicity": "inactive: -5.66%"}, {"smiles": "O=c1[nH]c(=O)n(-c2cccc3ccccc23)c(O)c1/C=N/N1CCCCC1c1cccnc1", "note": "(configuration not stated)", "activity change, negative = cytotoxicity": "inactive: 1.13%"}, {"smiles": "O=P(Oc1ccc(-c2ccccc2)cc1)(N1CC1)N1CC1", "activity change, negative = cytotoxicity": "inactive: -27.4%"}, {"smiles": "O=C1NC(=O)C(=Cc2ccc(N3CCOCC3)o2)C(=O)N1", "activity change, negative = cytotoxicity": "inactive: -16.6%"}, {"smiles": "N#C/C(=C\\c1ccc(O)cc1)C(=O)O", "note": "(tested in a mixture with another compound)", "activity change, negative = cytotoxicity": "inactive: -6.79%"}, {"smiles": "CC1(C)OC(c2ccccc2)=C/C(=C/C=C2C(=O)NC(=O)NC2=O)O1", "activity change, negative = cytotoxicity": "inactive: -22.8%"}, {"smiles": "COCCO[C@H]1CC[C@@]2(C)C(=CCC3C2CC[C@@]2(C)C3CC[C@]2(C)O)C1", "note": "(some centres not stated)", "activity change, negative = cytotoxicity": "inactive: -0.607%"}, {"smiles": "CCOP(=O)(C#Cc1ccccc1)C(O)c1ccc(Br)cc1", "note": "(configuration not stated)", "activity change, negative = cytotoxicity": "inactive: -0.875%"}, {"smiles": "CC1=NCCc2c1[nH]c1cc(O)ccc21", "activity change, negative = cytotoxicity": "inactive: -7.19%"}, {"smiles": "C[C@]12CCC3C(CC[C@H]4[C@H](O)[C@H](O)CC[C@]34C)C1CCC2=O", "note": "(some centres not stated)", "activity change, negative = cytotoxicity": "inactive: 5.48%"}, {"smiles": "c1ccc2nc(N3CCNCC3)ccc2c1", "activity change, negative = cytotoxicity": "inactive: 1.68%"}, {"smiles": "COc1nc(C)nc(NC(=O)NS(=O)(=O)c2ccccc2Cl)n1", "activity change, negative = cytotoxicity": "inactive: 1.41%"}, {"smiles": "COc1cc([C@@H]2c3cc4c(cc3[C@@H](OC)[C@H]3COC(=O)[C@H]23)OCO4)cc(OC)c1O", "activity change, negative = cytotoxicity": "inactive: -10.6%"}, {"smiles": "CCOC(=O)c1cncn1[C@@H](C)c1ccccc1", "activity change, negative = cytotoxicity": "inactive: -4.3%"}, {"smiles": "CC1(C)OC(c2ccccc2)=C/C(=C/C=C2C(=O)NC(=S)NC2=O)O1", "activity change, negative = cytotoxicity": "inactive: -12.9%"}, {"smiles": "CCC1(C)OC(c2ccccc2)=C/C(=C/C=C2C(=O)NC(=O)NC2=O)O1", "note": "(configuration not stated)", "activity change, negative = cytotoxicity": "inactive: 8.87%"}, {"smiles": "Nc1ccc(Cl)c(Cl)c1", "activity change, negative = cytotoxicity": "inactive: 5.82%"}, {"smiles": "CCC1(CC)C(=O)C=CNC1=O", "activity change, negative = cytotoxicity": "inactive: -15%"}, {"smiles": "C[C@@H](N)Cc1cnc[nH]1", "activity change, negative = cytotoxicity": "inactive: 9.02%"}, {"smiles": "CC[C@H]1CN2CCC1C[C@H]2[C@H](O)c1ccnc2ccc(OC)cc12", "note": "(some centres not stated)", "activity change, negative = cytotoxicity": "inactive: 3.28%"}, {"smiles": "COc1ccc(-c2ccc(OC)c(OC)c2OC)cc1", "activity change, negative = cytotoxicity": "inactive: -2.79%"}, {"smiles": "CC(C)C[C@@H]1COc2cccc(N3CCN(C)CC3)c2S(=O)(=O)N1", "activity change, negative = cytotoxicity": "inactive: -14.9%"}]}]}
